Results from paper PMC10762035, “Molecular basis of human trace amine-associated receptor 1 activation” (Nature Communications, 2024).

Amino acid sequences for entries named in this document (tags omitted). Chains listed by the source or under a name are the forms on record and can include a tag or linker. Residues count along the entry.
UniProt Q96RJ0, whole entry C5S: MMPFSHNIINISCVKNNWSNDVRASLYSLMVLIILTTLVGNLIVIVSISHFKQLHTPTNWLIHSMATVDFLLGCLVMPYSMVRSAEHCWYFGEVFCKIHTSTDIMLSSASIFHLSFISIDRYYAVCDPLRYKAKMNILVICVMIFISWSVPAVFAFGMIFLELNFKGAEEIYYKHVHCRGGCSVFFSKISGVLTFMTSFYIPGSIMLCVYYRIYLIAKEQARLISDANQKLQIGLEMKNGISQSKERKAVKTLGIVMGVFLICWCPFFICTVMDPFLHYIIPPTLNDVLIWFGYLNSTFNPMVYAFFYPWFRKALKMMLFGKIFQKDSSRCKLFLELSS
UniProt Q96RJ0, whole entry C88S: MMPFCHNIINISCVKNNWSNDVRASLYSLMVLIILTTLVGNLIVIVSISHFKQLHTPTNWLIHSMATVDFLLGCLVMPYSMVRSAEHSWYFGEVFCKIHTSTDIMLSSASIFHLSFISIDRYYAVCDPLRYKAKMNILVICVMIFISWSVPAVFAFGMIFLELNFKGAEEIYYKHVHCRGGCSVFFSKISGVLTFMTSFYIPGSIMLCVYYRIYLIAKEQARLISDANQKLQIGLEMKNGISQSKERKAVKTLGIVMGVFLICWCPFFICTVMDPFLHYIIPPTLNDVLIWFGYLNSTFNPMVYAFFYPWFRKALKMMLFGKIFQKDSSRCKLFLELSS
UniProt Q96RJ0, whole entry V184P: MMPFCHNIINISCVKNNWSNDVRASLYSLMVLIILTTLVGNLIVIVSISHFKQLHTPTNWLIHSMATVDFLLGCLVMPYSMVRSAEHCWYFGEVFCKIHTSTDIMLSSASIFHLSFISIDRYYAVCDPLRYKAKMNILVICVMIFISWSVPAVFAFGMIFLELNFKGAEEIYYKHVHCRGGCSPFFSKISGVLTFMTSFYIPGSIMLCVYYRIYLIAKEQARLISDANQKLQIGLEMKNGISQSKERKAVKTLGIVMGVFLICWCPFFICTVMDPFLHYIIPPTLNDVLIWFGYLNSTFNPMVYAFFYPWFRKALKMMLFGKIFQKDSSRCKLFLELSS
UniProt Q96RJ0, whole entry R83H: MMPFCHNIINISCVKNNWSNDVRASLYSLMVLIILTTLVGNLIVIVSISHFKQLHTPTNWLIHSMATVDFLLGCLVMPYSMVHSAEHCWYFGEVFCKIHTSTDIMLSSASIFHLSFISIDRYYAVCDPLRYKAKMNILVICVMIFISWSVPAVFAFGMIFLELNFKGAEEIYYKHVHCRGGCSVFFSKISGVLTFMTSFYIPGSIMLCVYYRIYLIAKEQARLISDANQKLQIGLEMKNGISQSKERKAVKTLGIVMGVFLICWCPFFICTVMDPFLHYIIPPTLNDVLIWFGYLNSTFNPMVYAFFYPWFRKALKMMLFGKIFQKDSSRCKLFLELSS
UniProt Q96RJ0, whole entry C178S: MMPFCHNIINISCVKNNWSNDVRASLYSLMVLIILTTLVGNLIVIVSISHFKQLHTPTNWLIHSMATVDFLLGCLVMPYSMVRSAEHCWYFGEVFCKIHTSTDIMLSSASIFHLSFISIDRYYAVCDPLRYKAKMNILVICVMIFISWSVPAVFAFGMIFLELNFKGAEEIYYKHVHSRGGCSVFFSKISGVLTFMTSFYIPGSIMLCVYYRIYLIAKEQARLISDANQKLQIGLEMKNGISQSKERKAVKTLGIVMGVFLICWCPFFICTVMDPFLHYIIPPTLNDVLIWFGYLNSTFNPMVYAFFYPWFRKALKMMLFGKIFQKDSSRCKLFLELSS
UniProt Q96RJ0, whole entry T194A: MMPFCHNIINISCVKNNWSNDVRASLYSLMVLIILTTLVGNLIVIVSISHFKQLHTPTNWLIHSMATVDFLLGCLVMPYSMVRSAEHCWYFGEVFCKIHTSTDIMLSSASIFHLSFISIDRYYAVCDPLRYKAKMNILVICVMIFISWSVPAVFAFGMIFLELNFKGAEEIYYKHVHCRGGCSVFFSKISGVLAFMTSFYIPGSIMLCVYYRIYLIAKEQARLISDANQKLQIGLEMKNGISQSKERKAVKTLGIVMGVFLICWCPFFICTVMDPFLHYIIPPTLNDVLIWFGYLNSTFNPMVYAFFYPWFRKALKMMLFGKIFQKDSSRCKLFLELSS
UniProt Q96RJ0, 1-339 with tags or gaps F112W: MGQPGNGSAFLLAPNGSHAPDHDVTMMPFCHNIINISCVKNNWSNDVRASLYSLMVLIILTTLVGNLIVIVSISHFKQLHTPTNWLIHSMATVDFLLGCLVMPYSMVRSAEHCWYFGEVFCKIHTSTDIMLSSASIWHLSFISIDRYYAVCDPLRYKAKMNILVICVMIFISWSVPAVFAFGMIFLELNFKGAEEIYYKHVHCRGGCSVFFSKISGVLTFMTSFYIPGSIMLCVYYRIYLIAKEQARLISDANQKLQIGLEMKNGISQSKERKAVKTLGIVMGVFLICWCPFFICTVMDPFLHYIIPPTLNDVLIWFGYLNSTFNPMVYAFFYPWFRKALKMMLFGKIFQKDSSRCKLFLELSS

Experiments:
hTA1 C5S = hTA1 C5S (Homo sapiens, UniProt Q96RJ0, C5S); details: for C5S - Normalized Luminescence Counts (N=2): log[Compound], single wells
hTA1 T194A = hTA1 T194A (Homo sapiens, UniProt Q96RJ0, T194A); details: T149A (so in the source) minus WT average
[1] = target: β2AR-Nterm-hTA1-F112^3.41W (CryoEM Construct) (Homo sapiens, UniProt Q96RJ0, F112W); assay: GloSensor cAMP accumulation assay, cryoEM construct; format: cell-based; details: Cryo EM Construct minus WT average;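 note: cells transiently co-transfected with the receptor construct and GloSensor cAMP biosensor, luminescence read after 30 min compound exposure at room temperature in the dark as cAMP accumulation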
hTA1 R83H = hTA1 R83H (Homo sapiens, UniProt Q96RJ0, R83H); assay: GloSensor cAMP accumulation assay, R83H mutant; format: cell-based; details: R83H (N=2), β-PEA, log[Agonist];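 note: cells transiently co-expressing hTA1 and a cAMP GloSensor, luminescence read 30 min after agonist addition at room temperature, concentration–response fitted by non-linear regression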
hTA1 V184P = hTA1 V184P (Homo sapiens, UniProt Q96RJ0, V184P); assay: GloSensor cAMP accumulation assay, V184P mutant; format: cell-based; details: V184P (N=2), β-PEA, log[Agonist]
hTA1 C88S = hTA1 C88S (Homo sapiens, UniProt Q96RJ0, C88S); details: C88S (N=2), β-PEA, log[Agonist]
hTA1 C178S = hTA1 C178S (Homo sapiens, UniProt Q96RJ0, C178S); details: C178S (N=2); β-PEA; log[Agonist], M -8.522

Row | SMILES | ΔEmax values (each mutant value - WT average), Mean (hTA1 C5S; hTA1 C5S minus WT average) | C5S - Normalized Luminescence Counts (N=2) (hTA1 C5S; M = -6) | C5S - Normalized Luminescence Counts (N=2) (hTA1 C5S; M = -6.522) | C5S - Normalized Luminescence Counts (N=2) (hTA1 C5S; M = -7) | ΔpEC50 values (each mutant value - WT average), Mean (hTA1 T194A) | ΔpEC50 values (each mutant value - WT average), Mean [1] | Normalized Luminescence Counts (hTA1 R83H; M -6.522) | Normalized Luminescence Counts (hTA1 R83H; M -7) | Normalized Luminescence Counts (hTA1 V184P; M -7) | Normalized Luminescence Counts (hTA1 V184P; M -7.522) | Normalized Luminescence Counts (hTA1 V184P; M -11.522) | C5S - Normalized Luminescence Counts (N=2) (hTA1 C5S; M = -7.522) | C5S - Normalized Luminescence Counts (N=2) (hTA1 C5S; M = -8) | Normalized Luminescence Counts (hTA1 C88S; M -7.522) | Normalized Luminescence Counts (hTA1 C88S; M -8.522) | Normalized Luminescence Counts (hTA1 C88S; M -9) | Normalized Luminescence Counts (hTA1 C178S)
1 | NCCc1ccc(Oc2ccc(O)cc2)c(I)c1 [T1AM, 3-iodothyronamine] | 2.709 and 18.7764 | 40.5464, 42.3753, 47.5908, 28.2691, 20.8813, 32.4118 | 21.7839, 26.0963, 20.5195, 13.0792, 9.282, 19.7765 | 10.1561, 9.569, 8.418, 2.93, 4.518, 5.484 | 0.2689, 0.4993, 0.06496 | – | – | – | – | – | – | – | – | – | – | – | –
2 | NCCc1ccccc1 | – | – | – | – | – | 0.4598 and 0.8322 | 27.6972, 12.3991, 13.299, 23.5013, 13.7981 | 4.3, 13.0219, 2.931, 6.424 | 14.2987, 25.9995, 32.4504 | 8.4795, 4.503, 3.727, 12.5114, 6.1339, 9.909 | 1.205, 0.1386, 0.2356, 0.7826, 0.5261, 0.3062 | 31.1313, 29.6863, 41.0206, 26.1287, 19.0171, 26.7501 | 14.4685, 15.0781, 12.8655, 14.5982, 6.382, 8.453 | 29.6148, 31.3901, 31.5267, 16.9367, 16.1353, 15.0668 | 6.65, 5.83, 5.466, 3.581, 2.512 | 1.847, 1.688, 2.993, 0.9095 | 3.333, 3.193, 2.959, 9.783, 5.445, 7.24

Read-outs that look alike come from different tables or passages of the source. For part of its entries the source gives two or more results. This is not the full list of results. The source may hold further records. Values given together differ for a reason that is not stated; some may be repeats, others may stem from another dose, organism or construct than stated.
